Test results published in patent EP3069725A1, “GLORIOSA SUPERBA L. EXTRACTS, COMPOSITIONS AND USE THEREOF” (priority 2015, dated 2016).
In brackets after ≈: the same amount, converted by molar mass.

What was measured:
[1] = system: murine pancreatic cancer cells PANC02; assay: cells; conditions: Mus musculus, Panc02, 24 h
cancer cells = conditions: literature comparison with colchicine; cited from earlier work

Q: Which IC50 [1] does the source give for `COc1cc2c(c(OC)c1OC)-c1ccc(OC)c(=O)cc1[C@@H](NC(C)=O)CC2` [COL, colchicine] here?
A: 0.098 ± 0.004 µg/mL (≈ 0.245 µM)

Q: Which in vivo potency (cancer cells) does the source give for `COc1c(O)cc2c(c1OC)-c1ccc(OC)c(=O)cc1[C@@H](NC(C)=O)CC2` [3-O-demethylcolchicine] here?
A: 3.6 µmol/kg
